Results reported in US20090240038A1.
Numbering of substitutions follows the chain as printed. These are yes or no findings as the source states them, for the method shown. Some binding calls cover weakened binding; strength is not graded here.

T1: EGFrVIII N-terminal sequence on SPOTs peptide array (nine overlapping 12-mers, residues 1-20) (human)
T1 sequence (peptide, synthesised as spots on polypropylene membrane): LEEKKGNYVVTDHGSCVRA

B1: antibody 095 (antibody, human IgG1, V domains shown)
VH: QVQLQESGPFLVKPSQTLSLTCTVSGGSISSGGYYWSWIRQHPGKGLEWIGFIYYRGNTYYNPSLKSRVTISVDTSKNQFSLKLSSVTAADTAVYYCARDGYCSRTGCYGGWFDPWGQGTLVTVSP
VL: DIVMTQTPLSSPVTLGQPASISCRSSQSLIHTDGNIYLSWLQQRPGQPPRLLIYKISNRFSGVPDRFSGSGAGTDFTLKISRVEAEDVGVYYCMQGTQFPITFGQGTRLEIK
B2: antibody 211 (antibody, human IgG1, V domains shown)
VH: QVQLVESGGGVVQPGRSLRLSCVASGFTLSSYGMHWVRQAPGKGLEWVAVTSYDGSKKDYADSAKGRFTISRDNSKNTLYLQMNSLRAEDTAVYYCVSEGYCSSSSCYKYYYYGMDVWGQGTTVTVSS
VL: DIVMTQSPLSLPVTPGEPASISCRSSQSLLYRNGNNYLDWYLQRPGQSPQLLIYLGSNRASGVPDRFSGSGSGTDFTLKISRVEAEDVGVYYCMQALQTPRTFGQGTKVEIK
B3: antibody 139 (antibody, human IgG1, V domains shown)
VH: EVQVLESGGGLVQPGGSLRLSCAASGFTFSSYAMSWVRQAPGKGLEWVSAISGSGGSTNYADSVKGRFTISRDNSKNTLYLQMNSLRAEDTAVYYCAGSSGWSEYWGQGTLVTVSS
VL: DIQMTQSPSSLSASVGDRVTITCRASQGIRNNLAWYQQKPGKAPKRLIYAASNLQSGVPSRFTGSGSGTEFTLIVSSLQPEDFATYYCLQHHSYPLTSGGGTKVEIK
B4: antibody 250 (antibody, human IgG1, V domains shown)
VH: B3 VH with V2G, V4L, L11W, G16E, M83V, A88V
VL: DIQMTQSPSSLSASVGDSVTITCRTSQGIRKNLGWYQQKPGKAPKRLIYAASSLQSGVPSRFSGSGSGTEFTLTISRLQPEDFATYYCLQHHSYPLTFGGGTRVEIR

target: T1, EGFrVIII N-terminal sequence on SPOTs peptide array (nine overlapping 12-mers, residues 1-20) (human); experiment: SPOTs peptide array, 1 µg/ml antibody, HRP secondary, ECL

binding, binds:
B1, B2, B3, B4

target: EGFRvIII-Rabbit Fc fusion protein (human; rabbit) (UniProt P00533); experiment: Western blot, EGFRvIII rabbit Fc fusion protein, native

binding, binds:
B1, B2, B4

target: EGFRvIII-Rabbit Fc fusion protein (human; rabbit) (UniProt P00533); experiment: Western blots and epitope mapping; member inferred (nine mapped mAbs without H10 and 211)

binding, binds:
B1, B3, B4

target: EGFRvIII-Rabbit Fc fusion protein (human; rabbit) (UniProt P00533); experiment: Western blot of purified EGFRvIII

binding, binds:
B2

target: EGFRvIII-Rabbit Fc fusion protein (human; rabbit) (UniProt P00533); experiment: Western blot, EGFRvIII rabbit Fc fusion protein, reduced

binding, binds:
B1, B2, B3, B4
